The record followed here is US8828984B2, “Gold(III) complexes containing N-heterocyclic carbene ligand, synthesis, and their applications in cancer treatment and thiol detection” (University of Hong Kong, priority 2012, dated 2014).

This series is described as follows: Fluorescent response towards different analysts (thiol probe).

`Cn1cc[n+](C)[c]1[Au-]12[n]3c(nc4ccccc43)-c3cccc([n+]31)-c1nc3ccccc3[n]12.O=S(=O)([O-])C(F)(F)F` [Complex 9]: for the setting “20 μM complex, 2 mM GSH or Cys, PBS:DMSO=9:1, excitation 340 nm”, the “Increase in emission intensity upon treatment with GSH or Cys” value is “at least 200 fold”. Further, the “Fluorescence with metal ions or thiol-free amino acids” value (Na+, K+, Ca2+, Mg2+, Ala, Ser, Pro, Leu, Ile, His, 2 mM, PBS:DMSO=9:1) was “No fluorescence was found”.
